Laboratory results as given in the supplement of paper PMC6078165.
The reference is the same well before dosing, and untreated signal decays as well.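 Labels refer to human fibroblasts, largely primary: uterine (C12385, HUF), lung (H6013), bone (Hs27A), adrenal (HADF), skin (WS1), plus mammary HMF and breast cancer-associated Hs343T. Cancer lines are basal-like or mesenchymal-like triple-negative breast cancer. The paper counts as hits responses shifting over 3x the replicate standard deviation. The tissue of the other fibroblasts is not given here.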

Tested on: BT20
Test: relative JC-1 red fluorescence (viability) vs pre-drug, coculture with fibroblast (fraction); higher = more viable cancer cells
Experimental: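 JC-1 labelled TNBC cells cocultured 1:1 (1,500 cells each) with CellTrace Violet stained primary or stromal fibroblasts in 384-well plates in FluoroBrite medium, treated with one of 42 anticancer drugs at 0.1, 1, 10 or 100 uM. JC-1 red fluorescence (mitochondrial integrity in cancer cells only) was read by plate reader every 8 h for 72 h. Values are normalised to each well's pre-drug value. The stock of one drug was tenfold lower, so its dose labels may be too high.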

O=NN(CCCl)C(=O)NC1CCCCC1 [Lomustine]
relative JC-1 red fluorescence
Conditions	8 h	16 h	24 h	32 h	40 h	48 h	56 h	64 h	72 h
10 µM, coculture fibroblast: C12385	0.895	0.888	0.885	0.822	0.763	0.741	0.717	0.692	0.683
10 µM, coculture fibroblast: H6013	0.947	0.9448	0.964	0.935	0.9315	0.9303	0.965	0.955	0.96
10 µM, coculture fibroblast: H6019	0.867	0.801	0.81	0.7508	0.7113	0.709	0.684	0.667	0.655
10 µM, coculture fibroblast: H6076	0.877	0.938	0.89	0.8651	0.8565	0.836	0.834	0.833	0.821
10 µM, coculture fibroblast: H6231	0.814	0.9439	0.877	0.819	0.781	0.745	0.707	0.679	0.647
10 µM, coculture fibroblast: HADF	0.9473	0.895	0.857	0.822	0.798	0.758	0.746	0.737	0.707
10 µM, coculture fibroblast: HCFa	0.922	0.885	0.863	0.805	0.767	0.727	0.697	0.663	0.629
10 µM, coculture fibroblast: HCPF	0.973	0.888	0.838	0.801	0.768	0.74	0.719	0.717	0.687
10 µM, coculture fibroblast: HHSteC	0.951	0.863	0.932	0.843	0.806	0.889	0.795	0.8155	0.749
10 µM, coculture fibroblast: HMF	0.984	0.908	0.835	0.786	0.732	0.7	0.682	0.66	0.63
10 µM, coculture fibroblast: HPFa	0.946	0.926	0.941	0.863	0.848	0.805	0.779	0.743	0.686
10 µM, coculture fibroblast: HUF	0.896	0.839	0.837	0.775	0.728	0.703	0.69	0.683	0.672
10 µM, coculture fibroblast: Hs5	0.893	0.9177	0.848	0.819	0.786	0.747	0.7252	0.688	0.677
10 µM, coculture fibroblast: Hs27A	0.878	0.853	0.805	0.858	0.834	0.847	0.76	0.813	0.744
10 µM, coculture fibroblast: Hs343T	0.885	0.9011	0.8219	0.776	0.729	0.687	0.646	0.621	0.591
10 µM, coculture fibroblast: WS1	0.8595	0.803	0.797	0.747	0.696	0.68	0.653	0.638	0.621
100 µM, coculture fibroblast: C12385	0.877	0.851	0.857	0.805	0.752	0.727	0.708	0.695	0.66
100 µM, coculture fibroblast: H6013	0.909	0.873	0.9	0.869	0.859	0.84	0.847	0.836	0.827
100 µM, coculture fibroblast: H6019	0.843	0.797	0.7824	0.729	0.6792	0.671	0.641	0.613	0.602
100 µM, coculture fibroblast: H6076	0.9569	0.86	0.809	0.789	0.786	0.776	0.777	0.788	0.786
100 µM, coculture fibroblast: H6231	0.889	0.913	0.82	0.758	0.705	0.655	0.604	0.587	0.553
100 µM, coculture fibroblast: HADF	0.946	0.9568	0.86	0.952	0.855	0.799	0.819	0.82	0.746
100 µM, coculture fibroblast: HCFa	0.925	0.92	0.907	0.878	0.858	0.837	0.827	0.809	0.778
100 µM, coculture fibroblast: HCPF	0.915	0.8895	0.8365	0.8041	0.767	0.723	0.689	0.678	0.633
100 µM, coculture fibroblast: HHSteC	0.905	0.871	0.865	0.803	0.755	0.723	0.696	0.667	0.635
100 µM, coculture fibroblast: HMF	0.917	0.763	0.697	0.659	0.631	0.602	0.581	0.561	0.536
100 µM, coculture fibroblast: HPFa	0.937	0.8402	0.875	0.73	0.814	0.742	0.712	0.734	0.798
100 µM, coculture fibroblast: HUF	0.905	0.851	0.833	0.751	0.711	0.67	0.65	0.631	0.614
100 µM, coculture fibroblast: Hs5	0.888	0.916	0.869	0.837	0.814	0.787	0.761	0.751	0.7403
100 µM, coculture fibroblast: Hs27A	0.877	0.778	0.951	0.9814	0.9562	0.9498	0.92404	0.9019	0.8552
100 µM, coculture fibroblast: Hs343T	0.977	0.838	0.741	0.686	0.657	0.616	0.582	0.56	0.527
100 µM, coculture fibroblast: WS1	0.823	0.761	0.748	0.699	0.648	0.614	0.595	0.5757	0.5582
